From patent US20220226372A1 (priority 2019, published 2022)
At least one structure is not confirmed: it was looked up by name or label, or the drawing left a doubt.

Tests used:
Type in all cases: cell-based, mouse
[1] = system: C57BL6 mice splenic cells; conditions: MLR, 48 h
A20 cells [2] = test: GSH production in A20 cultured cells; conditions: 48 h, CuCl2 concentration(s) giving a significant decrease, 1 test
Description: (§1) Cells (1×10^5 per well) were seeded in 96-wells round bottom plates (Falcon, Corning, reference: 353077) and incubated for 48 hours with different experimental conditions in an incubator at 37° C. 5% CO2. Two plates were prepared in parallel to measure respectively the H2O2 production and A20 cell viability.
(§2) H2O2 production, GSH production and cell viability were measured using the same protocols as above-described for […].
(§3) Conditions of Treatments and Related Experimentations: 1 Test H2O2— 1 Test GSH • H2O2 or GSH production and cell survival: As2O3 (1 μM) with CuCl2 at 0.5; 1; 2 and 4 μM.

A20 cells [3] = test: A20 cell viability; conditions: 48 h (GSH experiment), CuCl2 concentration(s) giving a significant increase of viability, 1 test
Description: as §1, §2, §3

For `[Cl][Cu][Cl]` [CuCl2, copper(II) chloride], the “Cell proliferation: As2O3 + cations vs As2O3” value ([1]; As2O3 1 μM, cation concentration(s) giving a significant decrease of proliferation, test 2) was 2 and 4 μM (test 2), the “Proliferation of C57BL6 spleen cells in the presence of AsI3: CuCl2 concentrations with significant decrease” value ([1]; AsI3 1 μM, test 1) was 1, 2 and 4 μM and the “GSH Production: cations vs control” value (A20 cells [2]) was 2 and 4 μM. For the same compound, the “Cell survival: cations vs control” value (A20 cells [3]) was 2 and 4 μM.
